This passage reports binding results from article doi:10.1101/2020.07.08.194076.

This assay concerns the target T1, Arabidopsis phosphoribulokinase, Myc-tagged (Arabidopsis) (UniProt P25697).
T1 sequence: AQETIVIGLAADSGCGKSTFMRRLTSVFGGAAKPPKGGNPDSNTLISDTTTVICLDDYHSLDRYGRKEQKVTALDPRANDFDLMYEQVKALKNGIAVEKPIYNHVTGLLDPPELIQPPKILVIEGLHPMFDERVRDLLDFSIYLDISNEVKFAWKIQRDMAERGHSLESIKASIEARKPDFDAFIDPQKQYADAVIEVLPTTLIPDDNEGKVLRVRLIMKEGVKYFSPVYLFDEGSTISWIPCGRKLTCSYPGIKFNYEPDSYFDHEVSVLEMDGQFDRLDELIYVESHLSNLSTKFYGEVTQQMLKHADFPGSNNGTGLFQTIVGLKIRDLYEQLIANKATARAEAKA
Kind of assay: co-IP.

These are yes or no findings as the source states them, for the method shown. Binding seen in cells or lysates may run through a third protein. Sequences can lack the tags named with a protein.

B1: Phytoene synthase 2 (PSY2), tomato, C-terminal HA tag (enzyme, UniProt P37273 26-310)
chain: EYAKTFYLGTMLMTPDRRRAIWAIYVWCRRTDELVDGPNASHITPQALDRWEARLEDIFNGRPFDMLDAALSDTVSRFPVDIQPFRDMVEGMRMDLWKSRYNNFDELYLYCYYVAGTVGLMSVPIMGIAPESKATTESVYNAALALGIANQLTNILRDVGEDARRGRVYLPQDELAQAGLSDEDIFAGKVTDKWRIFMKKQIQRARKFFDEAEKGVTELSSASRWPVLASLLLYRKILDEIEANDYNNFTRRAYVSKPKKLLTLPIAYARSLVPPKSTSCPLAKT
With B1, the binding entry is “no binding”.

B2: Phytoene synthase 1 (PSY1), tomato, C-terminal HA tag (enzyme, UniProt P08196 130-412)
chain: EYAKTFNLGTMLMTPERRRAIWAIYVWCRRTDELVDGPNASYITPAALDRWENRLEDVFNGRPFDMLDGALSDTVSNFPVDIQPFRDMIEGMRMDLRKSRYKNFDELYLYCYYVAGTVGLMSVPIMGIAPESKATTESVYNAALALGIANQLTNILRDVGEDARRGRVYLPQDELAQAGLSDEDIFAGRVTDKWRIFMKKQIHRARKFFDEAEKGVTELSSASRFPVWASLVLYRKILDEIEANDYNNFTKRAYVSKSKKLIALPIAYAKSLVPPTKTASLQR
As for B2, the binding entry is listed as “no binding”.
